For at least one entry, the source does not settle the construct or the ends of the probe. For part of these data: Negatives hold for the conditions tested.
Assays:
[1] = system: CREMτ (co-transfected with PKA); experiment: activity in cells; conditions: luciferase in bone marrow stroma with PKA; protein in cells
ICERIIγ (co-transfected) = experiment: activity in cells; conditions: repression: luciferase significantly reduced (p<0.01) when co-transfected with PKA and CREMτ; protein in cells
[2] = system: ICERIIγ (inducible cAMP early repressor II gamma, CREM isoform); experiment: EMSA; conditions: purified recombinant protein, label: 32P 5' end
[3] = 2 ug protein, 20 ng probe, 1 h, 4% PAGE, only core site printed

In the case of “CGACGGCCCGGCTGGTAAATTCCCCTTTCTCCAAAATGTAAAATAAATCTGCTTCCATCTTCTAAAATACTATGGGACTAAACATCCTTTTGTTATGCTAAGGAAAAGCCAGTATTCGCGTTGATTTAGAAGAGGGATGTTCTGGTTATAGAACGATGCTGTGTCTCAGAAACACTTAAATACTATTAAGCTAGAAATAGAAGGGAAAATAATGCTTCCCCGCATCTCCCCTCAAGTGTAGTCCTCTTTTTTTAGCCTGATTTCCGACGAAATGTCTGAATGCCTACAGTTATTTGGCCATCCTGAAAAGTGCAACTTATCCTGACGTCTCGAGGGACGGAAAAGTTACCGAAGTCCAAGGAATGAGTCACTTTGCTCAAATTTGATGAGTAATATCAGGTGTCATGAAACCCAGTTTCGAAGGAGAGGGGAGGGGGCGTCAGATCTGCAGACGGAAGCAGGCCGCTCCGGATTGGATGGCGAGACCTCGATTTTCCTAAAATTGCGTCATTTAGAACCCAATTGGGTCCAGATGTTATGGGCATCGACGAGTTACCGTCTCGGAAACTCTCAATCACGCAAGCGAAAGGAGAGGAGGCGGCTAATTAAATATTGAGCAGAAAGTCGCGTGGGGAGAATGTCACGTGGGTCTGGAGGCTCAAGGAGGCTGGGATAAATACCGCAAGGCACTGAGCAGGCGAAAGAGCGCGCTCGGACCTCCT (double strand)”, the “activity on this sequence” value [1] is reported as “active” and the “activity on this sequence” value (ICERIIγ (co-transfected)) is reported as “active”.
“TTGCGTCA (double strand) [CRE-like-PPT-I wild type]”: binds [2, 3].
“TGACGTCT (double strand) [CRE-PPT-I wild type]”: binds [2, 3].
“TTGTGCAC (double strand) [CRE-like-PPT-I mutant]”: no binding ([2]; mutant CRE-like not bound, variant of CRE-like-PPT-I wild type).
“AGATGTTT (double strand) [CRE-PPT-I mutant]”: no binding ([2]; mutant CRE not bound, variant of CRE-PPT-I wild type).

— patent publication US20020146810
